Results are given in words; binding and its absence hold for the method and conditions named. In cells and extracts the contact can be indirect. Here binding means that the protein was enriched with, or labelled near, the bait; the list need not be complete.
Biological target: FLAG-HA-tagged PTEN (UniProt P60484)
Experiment: affinity purification with mass spectrometry; HeLa cells stably expressing FLAG-HA-PTEN or empty vector; nocodazole 100 nM 8 h (methods) or 8 h release from double thymidine block; nuclear fractions; sequential anti-FLAG M2 and anti-HA agarose, peptide elution; 125 kDa band analysed by MS

Chains of the proteins cited; added tags and fusions are not shown.
UniProt P60484: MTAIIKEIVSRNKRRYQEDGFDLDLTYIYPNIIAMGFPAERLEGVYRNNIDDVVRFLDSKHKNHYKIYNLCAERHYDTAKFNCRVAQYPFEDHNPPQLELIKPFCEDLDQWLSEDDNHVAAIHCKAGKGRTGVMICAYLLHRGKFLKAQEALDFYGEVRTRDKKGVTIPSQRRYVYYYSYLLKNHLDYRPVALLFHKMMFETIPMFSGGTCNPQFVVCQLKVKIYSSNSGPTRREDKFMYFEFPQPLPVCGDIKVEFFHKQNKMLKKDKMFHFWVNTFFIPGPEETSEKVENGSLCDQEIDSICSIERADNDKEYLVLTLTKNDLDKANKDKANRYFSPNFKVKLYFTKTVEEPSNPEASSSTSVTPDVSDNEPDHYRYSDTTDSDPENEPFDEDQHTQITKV
UniProt P52732: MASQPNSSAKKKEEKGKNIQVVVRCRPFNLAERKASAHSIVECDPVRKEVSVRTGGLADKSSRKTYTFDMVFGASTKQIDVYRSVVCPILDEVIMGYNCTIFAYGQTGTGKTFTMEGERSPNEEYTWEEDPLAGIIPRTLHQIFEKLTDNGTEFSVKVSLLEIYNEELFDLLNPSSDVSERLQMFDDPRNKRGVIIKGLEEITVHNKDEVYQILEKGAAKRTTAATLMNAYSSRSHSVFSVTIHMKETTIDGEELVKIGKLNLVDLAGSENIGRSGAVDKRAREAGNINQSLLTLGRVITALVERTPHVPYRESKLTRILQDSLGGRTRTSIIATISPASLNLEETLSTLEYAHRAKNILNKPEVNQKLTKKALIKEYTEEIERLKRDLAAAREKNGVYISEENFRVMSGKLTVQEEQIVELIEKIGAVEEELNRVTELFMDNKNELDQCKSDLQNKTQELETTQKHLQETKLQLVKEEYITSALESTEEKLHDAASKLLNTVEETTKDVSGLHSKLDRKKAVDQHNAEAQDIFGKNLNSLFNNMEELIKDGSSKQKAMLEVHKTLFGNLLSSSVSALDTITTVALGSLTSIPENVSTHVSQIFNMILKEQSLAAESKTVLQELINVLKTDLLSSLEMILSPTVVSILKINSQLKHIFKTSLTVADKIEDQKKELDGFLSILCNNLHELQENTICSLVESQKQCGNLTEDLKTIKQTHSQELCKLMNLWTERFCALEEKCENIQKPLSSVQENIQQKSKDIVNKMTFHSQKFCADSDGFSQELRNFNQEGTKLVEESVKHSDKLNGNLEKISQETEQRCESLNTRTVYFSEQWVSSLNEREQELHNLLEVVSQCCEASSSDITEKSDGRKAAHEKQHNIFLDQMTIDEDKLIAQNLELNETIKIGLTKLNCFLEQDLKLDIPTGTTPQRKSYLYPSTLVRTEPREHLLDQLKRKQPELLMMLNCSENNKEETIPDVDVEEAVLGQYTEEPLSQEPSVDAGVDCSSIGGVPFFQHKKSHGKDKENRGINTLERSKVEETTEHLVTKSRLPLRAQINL

EG5 (endogenous, HeLa) (from UniProt P52732 1-1056)
binding: binds

Reference: publication PMC4980451
